Laboratory results published in PubChem BioAssay AID1487 (National Center for Advancing Translational Sciences (NCATS), 2009).
The other results are listed elsewhere or left out. The main result of the screen is listed elsewhere. These columns were measured beside it and carry no call. The list favours compounds with an active or inconclusive main result. Words in brackets tell the shape of the fitted curve; partial curves, single points and poor fits give uncertain potencies.

Assay: qHTS Assay for Modulators of Lamin A Splicing
Settings: HeLa LMNA splicing GFP/RFP minigene ratio, 48 h
In short: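 S3 HeLa cells stably expressing lamin A-EGFP splicing minigene plus DsRed2, 600 cells/well, 48 h compound exposure at 37C. Laser-scanning cytometry; analysed as GFP (500-530 nm)/RFP (575-640 nm) total intensity ratio; 0.5% DMSO vehicle.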

[1] = measured here: RFP viability control channel
[2] = measured here: GFP splicing reporter channel

| Structure (SMILES) | AC50 [1] | AC50 [2] |
| --- | --- | --- |
| CCOC(=O)c1c(C)[nH]c(C(=O)N/N=C\c2ccccc2Cl)c1C | 8.91 µM [rising, partial curve] |  |
| CCN(CC)C(=O)CSc1nc(N)c2c3c(sc2n1)CC(C)CC3 (configuration not stated) | 35.5 µM [rising, single point] |  |
| CCn1c2ccccc2c2cc(CN3CCN(C(=O)c4ccco4)CC3)ccc21 | 6.31 µM [falling, single point] | 0.0891 µM [falling, full curve, poor fit] |
| Cc1cccc(N/C(N)=N/c2nc(C(F)(F)F)cc(C(F)(F)F)n2)c1 |  | 0.00316 µM [rising, full curve, poor fit] |
| CCN(CC)S(=O)(=O)c1cccc(S(=O)(=O)c2cccc(S(=O)(=O)N(CC)CC)c2)c1 |  | 11.2 µM [rising, single point] |
| CCOCC(=O)Nc1ccccc1C(=O)N1CCOCC1 | 3.55 µM [rising, partial curve, poor fit] |  |
| Cc1ccc(-n2ncc(C(=O)N3CCN(c4cccc(C)c4)C(C)C3)c2C2CCN(C(=O)OC(C)(C)C)CC2)cc1 (configuration not stated) | 22.4 µM [rising, single point] |  |
| Cc1ccc(C2C(C(=O)O)c3ccccc3C(=O)N2C)c(C)c1 (configuration not stated) | 7.08 µM [falling, full curve, poor fit] | 7.08 µM [falling, partial curve, poor fit] |
| Cc1ccc(-c2noc(CCCC(=O)N3CCOCC3)n2)cc1 | 0.0631 µM [rising, full curve, poor fit] |  |
| COc1ccccc1-c1nc(NCc2ccccc2)c2ccccc2n1 | 22.4 µM [falling, partial curve] | 25.1 µM [falling, single point] |
| C/C(=N\NC(=S)NCC(C)(C)C)c1cc(F)cc(F)c1O | 1.41 µM [falling, partial curve] | 2.51 µM [falling, full curve, poor fit] |
| Cn1c(SCC(=O)Nc2cc(C(C)(C)C)nn2-c2ccccc2)nc2ccccc21 | 17.8 µM [rising, partial curve] |  |
| O=C(Nc1c(F)cccc1F)c1cnc(N2CCN(c3ccccn3)CC2)c2ccccc12 | 22.4 µM [rising, single point] |  |
| COc1ccc(OC)c(/C=N/NC(=O)c2cc(-c3ccc(C)o3)nc3ccccc23)c1 |  | 35.5 µM [rising, single point] |
| CCOC(=O)N1CCc2c(sc(NC(=O)c3ccc(S(=O)(=O)N4CCCC4)cc3)c2C#N)C1 | 3.55 µM [rising, single point] |  |
| COC(=O)N/N=C\c1cc(Br)ccc1OCc1ccccc1 | 35.5 µM [rising, single point] | 11.2 µM [rising, partial curve, poor fit] |
| Cc1cc(Nc2cccc([N+](=O)[O-])c2)n2c(nc3ccccc32)c1C#N | 2.82 µM [rising, full curve] |  |
| CCOC(=O)c1cc(-c2cccnc2)nn1-c1ccccc1 |  | 35.5 µM [falling, partial curve, poor fit] |
| Cc1ccc(C(=O)N2CCc3cc(CNS(=O)(=O)c4ccc(Cl)s4)ccc32)cc1 |  | 0.631 µM [rising, partial curve, poor fit] |

Grouped by structure: the compounds so far with four or more nitrogen atoms (7)

| Structure (SMILES) | AC50 [1] | AC50 [2] |
| --- | --- | --- |
| CCN(CC)C(=O)CSc1nc(N)c2c3c(sc2n1)CC(C)CC3 (configuration not stated) | 35.5 µM [rising, single point] |  |
| Cc1cccc(N/C(N)=N/c2nc(C(F)(F)F)cc(C(F)(F)F)n2)c1 |  | 0.00316 µM [rising, full curve, poor fit] |
| Cc1ccc(-n2ncc(C(=O)N3CCN(c4cccc(C)c4)C(C)C3)c2C2CCN(C(=O)OC(C)(C)C)CC2)cc1 (configuration not stated) | 22.4 µM [rising, single point] |  |
| Cn1c(SCC(=O)Nc2cc(C(C)(C)C)nn2-c2ccccc2)nc2ccccc21 | 17.8 µM [rising, partial curve] |  |
| O=C(Nc1c(F)cccc1F)c1cnc(N2CCN(c3ccccn3)CC2)c2ccccc12 | 22.4 µM [rising, single point] |  |
| CCOC(=O)N1CCc2c(sc(NC(=O)c3ccc(S(=O)(=O)N4CCCC4)cc3)c2C#N)C1 | 3.55 µM [rising, single point] |  |
| Cc1cc(Nc2cccc([N+](=O)[O-])c2)n2c(nc3ccccc32)c1C#N | 2.82 µM [rising, full curve] |  |

Next compounds:

| Structure (SMILES) | AC50 [1] | AC50 [2] |
| --- | --- | --- |
| Cc1ccc(C)c(N2CCN(C(=O)C3CCN(c4nc(-c5ccc(C(C)C)cc5)no4)CC3)CC2)c1 | 5.01 µM [falling, full curve, poor fit] |  |
| Cc1cccc(CNc2nc(-c3ccccc3CN(C)C)nc3ccccc23)c1 |  | 7.08 µM [rising, partial curve, poor fit] |
| O=C(CN1CCN(S(=O)(=O)c2cc(Cl)ccc2Cl)CC1)Nc1cccc(F)c1 | 22.4 µM [rising, single point] |  |
| O=C(c1cncc(Br)c1)N1CCN(c2ccc([N+](=O)[O-])cc2)CC1 | 12.6 µM [rising, partial curve, poor fit] | 8.91 µM [rising, partial curve, poor fit] |
| CC(C)Oc1c(Br)cc(Br)cc1/C=N/NC(N)=S | 10 µM [rising, partial curve] | 7.94 µM [rising, partial curve, poor fit] |
| COc1ccc(C2CC(c3cccs3)=NN2C(=O)c2ccc(Br)o2)cc1 (configuration not stated) | 25.1 µM [rising, single point] |  |
| CC(=O)c1ccc(-c2ccc(C(=O)NC3CCCCCC3)o2)cc1 |  | 12.6 µM [falling, partial curve] |
| O=C(CSc1ccccn1)Nc1nc2c(ccc3ccccc32)s1 | 14.1 µM [rising, single point] |  |
| COc1ccc(S(=O)(=O)n2cnc3cc(C)c(C)cc32)cc1 | 12.6 µM [rising, single point] |  |
| CCOC(=O)CSC1=C(C#N)C(c2ccc3c(c2)OCO3)CC(=O)N1 (configuration not stated) | 35.5 µM [rising, single point] |  |
| CCCCOC(=O)Cn1c(=O)c2c(nc(Br)n2Cc2ccccc2)n(C)c1=O | 15.8 µM [rising, single point] |  |
| O=C(Nc1nncs1)c1cccc(S(=O)(=O)N2CCc3ccccc32)c1 |  | 12.6 µM [falling, partial curve, poor fit] |
| COc1cc(C(=O)Nc2nc(-c3cccs3)cs2)cc(OC)c1OC | 35.5 µM [falling, single point] | 25.1 µM [falling, single point] |
| N#Cc1c(NC(=O)c2cnn3cccnc23)sc2c1CCCC2 |  | 0.158 µM [falling, full curve, poor fit] |
| COc1cccc(CNC(=O)c2cc3c(C)nc4ccccc4c3o2)c1 | 17.8 µM [rising, partial curve] |  |
| CN1/C(=C\C=N\NC(=O)c2ccc(O)cc2)C(C)(C)c2ccccc21 | 15.8 µM [rising, single point] |  |
| CCN1CCCC1CNC(=O)CSc1cc(=O)n(C)c2cc(Cl)ccc12 (configuration not stated) | 15.8 µM [rising, single point] |  |
| CNC(=O)C(Sc1ccccc1)c1ccccc1 (configuration not stated) | 3.55 µM [falling, single point] |  |
| CC1=C(CC(=O)c2ccc(Cl)cc2)C(=O)c2ccccc2C1=O | 14.1 µM [falling, partial curve] | 35.5 µM [falling, single point] |

| Structure (SMILES) | AC50 [1] | AC50 [2] |
| --- | --- | --- |
| O=C(O)P(=O)(O)O | 0.355 µM [falling, partial curve] | 0.355 µM [falling, partial curve] |
| O=C(O)/C=C/c1cccc(OCc2ccccc2)c1 |  | 1.58 µM [rising, partial curve, poor fit] |
| Cc1nc(SCC(=O)NC(C)(C#N)C2CC2)c2c(-c3cccs3)csc2n1 (configuration not stated) | 11.2 µM [rising, partial curve] |  |
| N#CCc1ccc(NC(=O)/C=C/c2ccc([N+](=O)[O-])o2)cc1 | 5.01 µM [falling, partial curve] | 0.631 µM [falling, full curve] |
| COc1ccc(Cl)cc1Nc1sc(C(=O)c2ccccc2)c(N)c1C(=O)Nc1ccccc1 | 20 µM [rising, single point] |  |
| CC(=O)N1CCc2cc(CNS(=O)(=O)c3ccc(F)cc3)ccc21 |  | 0.562 µM [rising, single point] |
| OCCCNc1c2c(nc3cc(-c4ccc(Cl)cc4)nn13)CCC2 |  | 1 µM [rising, full curve, poor fit] |
| COc1ccc(NS(=O)(=O)c2ccc3oc4ccccc4c3c2)cn1 | 8.91 µM [rising, partial curve, poor fit] |  |
| CC1(C)OC2C(CO)OC(n3cnc4c(=S)nc[nH]c43)C2O1 (configuration not stated) | 0.0891 µM [falling, full curve, poor fit] |  |
| CC(C)(C)n1nnnc1C(c1cccs1)N(Cc1cccnc1)Cc1ccccc1Cl (configuration not stated) |  | 35.5 µM [falling, single point] |
| CCCCCCCCCCCCCCCC[N+](C)(C)CCN(Cc1ccc(OC)cc1)c1ncccn1 | 7.08 µM [rising, partial curve, poor fit] | 5.62 µM [falling, partial curve, poor fit] |
| O=C1OCC2=C1C(c1ccccc1)CC(=O)N2c1cccc(F)c1 (configuration not stated) |  | 11.2 µM [falling, single point] |
| N#Cc1c(NC(=O)CSc2n[nH]c(N)n2)oc(-c2ccccc2)c1-c1ccccc1 |  | 1.41 µM [rising, partial curve] |
| O=C(CCc1c[nH]c2ccccc12)NCC(=O)Nc1ccc(F)c(F)c1F | 39.8 µM [rising, partial curve, poor fit] |  |
| CCOC(=O)N1CCN(C(=O)c2noc(C(C)C)c2[N+](=O)[O-])CC1 | 0.251 µM [falling, full curve, poor fit] | 0.282 µM [falling, full curve, poor fit] |
| O=C(NCCCN1CCN(c2ccccc2F)CC1)Nc1ccc(F)cc1 | 5.62 µM [falling, single point] | 3.98 µM [falling, partial curve, poor fit] |
| O=C(Cn1cnc2c(cnn2-c2ccccc2)c1=O)Nc1cc(S(=O)(=O)N2CCOCC2)ccc1Cl | 20 µM [rising, partial curve] | 8.91 µM [rising, partial curve, poor fit] |
| CC(=O)Nc1cc(C(=O)N2CCc3ccccc3C2)ccc1Sc1ccc(F)cc1 | 22.4 µM [rising, single point] | 15.8 µM [rising, single point] |

In a second layout: entries from further up.
Structure (SMILES)	AC50 [1]	AC50 [2]
O=C(CN1CCN(S(=O)(=O)c2cc(Cl)ccc2Cl)CC1)Nc1cccc(F)c1	22.4 µM [rising, single point]	
O=C(c1cncc(Br)c1)N1CCN(c2ccc([N+](=O)[O-])cc2)CC1	12.6 µM [rising, partial curve, poor fit]	8.91 µM [rising, partial curve, poor fit]
